The values that follow come from PMC6328551.

The target in test [1] is T1, SFB-tagged MFF (mitochondrial fission factor) (UniProt Q9GZY8).
T1 sequence: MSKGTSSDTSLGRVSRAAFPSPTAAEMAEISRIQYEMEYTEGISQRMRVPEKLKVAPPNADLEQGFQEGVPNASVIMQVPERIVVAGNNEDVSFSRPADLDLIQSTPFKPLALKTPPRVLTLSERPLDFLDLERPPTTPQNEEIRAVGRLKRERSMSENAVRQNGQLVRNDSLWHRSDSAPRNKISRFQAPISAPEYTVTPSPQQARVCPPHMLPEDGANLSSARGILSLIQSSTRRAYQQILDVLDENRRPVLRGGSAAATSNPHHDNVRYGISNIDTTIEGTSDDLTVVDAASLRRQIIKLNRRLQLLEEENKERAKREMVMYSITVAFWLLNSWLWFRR
Nature of the test: pull-down; SFB-tagged bait and ARMC10 co-transfected into HEK293T cells; lysis in NETN buffer; lysates with S protein beads for 2 h at 4 °C; Western blot. (In general: In western blotting, separated proteins are transferred to a membrane and probed.)

The target of another test is T2, SFB-tagged MFN1 (UniProt Q8IWA4).
T2 sequence: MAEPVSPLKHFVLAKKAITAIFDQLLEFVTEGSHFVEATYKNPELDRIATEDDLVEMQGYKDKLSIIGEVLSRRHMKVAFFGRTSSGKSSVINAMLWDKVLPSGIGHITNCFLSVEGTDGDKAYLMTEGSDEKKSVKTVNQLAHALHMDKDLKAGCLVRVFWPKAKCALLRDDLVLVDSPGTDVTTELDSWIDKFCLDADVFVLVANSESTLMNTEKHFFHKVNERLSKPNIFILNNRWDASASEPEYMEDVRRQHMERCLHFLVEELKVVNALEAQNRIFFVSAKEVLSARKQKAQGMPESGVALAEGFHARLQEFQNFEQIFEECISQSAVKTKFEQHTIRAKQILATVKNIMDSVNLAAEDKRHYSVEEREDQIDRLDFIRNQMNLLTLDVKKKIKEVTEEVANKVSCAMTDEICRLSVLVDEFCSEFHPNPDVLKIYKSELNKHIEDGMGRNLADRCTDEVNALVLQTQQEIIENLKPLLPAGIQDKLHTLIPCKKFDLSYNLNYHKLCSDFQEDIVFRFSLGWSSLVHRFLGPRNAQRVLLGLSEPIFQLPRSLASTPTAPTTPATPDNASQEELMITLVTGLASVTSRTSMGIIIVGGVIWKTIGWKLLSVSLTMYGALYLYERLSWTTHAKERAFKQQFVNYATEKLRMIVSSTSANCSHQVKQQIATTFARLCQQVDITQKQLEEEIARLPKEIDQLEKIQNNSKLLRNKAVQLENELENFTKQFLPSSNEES
The test is described as above.

No constants are given. Whether binding was seen depends on the method and setting. Binding seen in cells or lysates may run through a third protein. For some assays here: A result given as binding can be weak or reduced; the word gives no strength. Sequences can lack the tags named with a protein.

Regarding “Myc-tagged ARMC10, short isoform (308 residues) (human)”, the binding result is listed as “binds” in test [1] and “no binding” with SFB-tagged MFN1.
